# Measured values taken from paper PMC1762330, “‘Fractional Recovery’ Analysis of a Presynaptic Synaptotagmin 1-Anchored Endocytic Protein Complex” (PLoS ONE, 2006).
# Chains of the proteins cited; added tags and fusions are not shown.
# UniProt P11442: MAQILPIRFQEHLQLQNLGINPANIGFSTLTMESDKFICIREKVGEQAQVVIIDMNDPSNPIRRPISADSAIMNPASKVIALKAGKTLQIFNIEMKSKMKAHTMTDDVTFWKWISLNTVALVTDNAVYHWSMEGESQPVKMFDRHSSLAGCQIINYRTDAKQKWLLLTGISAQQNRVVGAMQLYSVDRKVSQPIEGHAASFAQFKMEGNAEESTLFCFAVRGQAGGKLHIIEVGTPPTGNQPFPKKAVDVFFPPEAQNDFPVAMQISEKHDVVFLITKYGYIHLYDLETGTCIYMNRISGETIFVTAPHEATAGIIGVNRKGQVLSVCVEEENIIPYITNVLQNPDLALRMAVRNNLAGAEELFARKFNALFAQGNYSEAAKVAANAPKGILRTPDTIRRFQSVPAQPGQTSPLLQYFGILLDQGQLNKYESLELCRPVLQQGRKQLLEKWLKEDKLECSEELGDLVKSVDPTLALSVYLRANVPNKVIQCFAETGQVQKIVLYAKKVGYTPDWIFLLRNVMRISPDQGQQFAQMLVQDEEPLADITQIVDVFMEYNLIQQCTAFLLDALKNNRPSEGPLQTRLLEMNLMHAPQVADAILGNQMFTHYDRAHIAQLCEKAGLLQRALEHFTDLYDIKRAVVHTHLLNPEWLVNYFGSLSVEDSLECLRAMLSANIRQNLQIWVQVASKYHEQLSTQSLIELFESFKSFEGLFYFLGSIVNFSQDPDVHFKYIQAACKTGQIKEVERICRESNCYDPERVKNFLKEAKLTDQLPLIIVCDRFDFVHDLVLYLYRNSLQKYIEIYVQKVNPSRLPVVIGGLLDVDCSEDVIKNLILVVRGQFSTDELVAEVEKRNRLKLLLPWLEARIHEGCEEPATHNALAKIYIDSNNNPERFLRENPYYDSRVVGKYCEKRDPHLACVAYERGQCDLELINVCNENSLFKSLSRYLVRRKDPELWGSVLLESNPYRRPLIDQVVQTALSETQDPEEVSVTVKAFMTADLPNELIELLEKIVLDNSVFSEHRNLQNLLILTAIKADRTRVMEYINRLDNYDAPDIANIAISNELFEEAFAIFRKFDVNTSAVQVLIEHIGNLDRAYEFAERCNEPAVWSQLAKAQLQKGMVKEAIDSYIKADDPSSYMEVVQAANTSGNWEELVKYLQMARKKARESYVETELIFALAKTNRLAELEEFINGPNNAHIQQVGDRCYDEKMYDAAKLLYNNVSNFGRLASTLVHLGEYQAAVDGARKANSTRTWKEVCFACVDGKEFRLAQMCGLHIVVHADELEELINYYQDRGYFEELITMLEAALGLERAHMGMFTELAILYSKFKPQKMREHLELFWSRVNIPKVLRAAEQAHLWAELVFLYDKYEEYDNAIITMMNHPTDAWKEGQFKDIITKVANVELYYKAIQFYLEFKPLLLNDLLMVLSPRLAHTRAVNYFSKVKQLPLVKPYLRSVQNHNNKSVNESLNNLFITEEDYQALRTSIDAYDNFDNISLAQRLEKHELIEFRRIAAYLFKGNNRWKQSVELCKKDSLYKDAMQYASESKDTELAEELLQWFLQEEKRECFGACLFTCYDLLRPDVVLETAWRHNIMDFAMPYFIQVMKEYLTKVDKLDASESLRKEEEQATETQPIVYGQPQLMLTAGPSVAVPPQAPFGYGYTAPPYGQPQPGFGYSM
# Where two headings read alike, the source gives them in different places. No constants are given. Whether binding was seen depends on the method and setting. In cells and extracts the contact can be indirect. Some binding calls cover weakened binding; strength is not graded here.
# T1: AP180 (rat (endogenous in rat brain synaptosomes)) (UniProt Q05140)
# T1 sequence: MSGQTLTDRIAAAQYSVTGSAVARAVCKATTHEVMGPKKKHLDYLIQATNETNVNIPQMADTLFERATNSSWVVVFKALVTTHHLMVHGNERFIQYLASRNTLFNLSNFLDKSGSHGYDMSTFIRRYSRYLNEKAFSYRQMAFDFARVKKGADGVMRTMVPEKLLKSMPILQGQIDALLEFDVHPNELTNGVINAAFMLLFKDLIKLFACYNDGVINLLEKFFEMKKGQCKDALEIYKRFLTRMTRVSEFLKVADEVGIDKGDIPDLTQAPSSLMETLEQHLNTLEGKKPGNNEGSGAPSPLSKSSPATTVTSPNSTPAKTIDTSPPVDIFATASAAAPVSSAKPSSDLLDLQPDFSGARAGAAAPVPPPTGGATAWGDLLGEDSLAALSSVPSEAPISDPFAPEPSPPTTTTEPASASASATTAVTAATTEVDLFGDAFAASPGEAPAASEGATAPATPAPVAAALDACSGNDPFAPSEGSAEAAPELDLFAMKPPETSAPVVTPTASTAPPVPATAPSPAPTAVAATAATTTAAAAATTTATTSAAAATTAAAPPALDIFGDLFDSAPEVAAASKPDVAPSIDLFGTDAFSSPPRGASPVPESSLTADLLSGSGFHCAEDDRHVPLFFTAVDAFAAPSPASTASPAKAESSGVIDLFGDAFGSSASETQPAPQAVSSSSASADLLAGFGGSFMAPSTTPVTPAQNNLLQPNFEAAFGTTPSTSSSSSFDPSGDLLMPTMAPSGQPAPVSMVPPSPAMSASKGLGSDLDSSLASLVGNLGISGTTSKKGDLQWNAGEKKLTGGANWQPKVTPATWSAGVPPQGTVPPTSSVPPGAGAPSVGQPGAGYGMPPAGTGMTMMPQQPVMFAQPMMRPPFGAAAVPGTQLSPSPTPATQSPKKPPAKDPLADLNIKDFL
# B1: synaptotagmin 1 (natural protein, UniProt P21707 1-421, looked up)
# chain: MVSASHPEALAAPVTTVATLVPHNATEPASPGEGKEDAFSKLKQKFMNELHKIPLPPWALIAIAIVAVLLVVTCCFCVCKKCLFKKKNKKKGKEKGGKNAINMKDVKDLGKTMKDQALKDDDAETGLTDGEEKEEPKEEEKLGKLQYSLDYDFQNNQLLVGIIQAAELPALDMGGTSDPYVKVFLLPDKKKKFETKVHRKTLNPVFNEQFTFKVPYSELGGKTLVMAVYDFDRFSKHDIIGEFKVPMNTVDFGHVTEEWRDLQSAEKEEQEKLGDICFSLRYVPTAGKLTVVILEAKNLKKMDVGGLSDPYVKIHLMQNGKRLKKKKTTIKKNTLNPYYNESFSFEVPFEQIQKVQVVVTVLDYDKIGKNDAIGKVFVGYNSTGAELRHWSDMLANPRRPIAQWHTLQVEEEVDAMLAVKK
# notes: synaptotagmin 1, endogenous in synaptosomes from brains of 2-10 day old Sprague Dawley rats; also called STG; STG 1; source: endogenous, rat brain synaptosome lysate
# B2: AP180 (protein, UniProt Q05140 1-915)
# chain: MSGQTLTDRIAAAQYSVTGSAVARAVCKATTHEVMGPKKKHLDYLIQATNETNVNIPQMADTLFERATNSSWVVVFKALVTTHHLMVHGNERFIQYLASRNTLFNLSNFLDKSGSHGYDMSTFIRRYSRYLNEKAFSYRQMAFDFARVKKGADGVMRTMVPEKLLKSMPILQGQIDALLEFDVHPNELTNGVINAAFMLLFKDLIKLFACYNDGVINLLEKFFEMKKGQCKDALEIYKRFLTRMTRVSEFLKVADEVGIDKGDIPDLTQAPSSLMETLEQHLNTLEGKKPGNNEGSGAPSPLSKSSPATTVTSPNSTPAKTIDTSPPVDIFATASAAAPVSSAKPSSDLLDLQPDFSGARAGAAAPVPPPTGGATAWGDLLGEDSLAALSSVPSEAPISDPFAPEPSPPTTTTEPASASASATTAVTAATTEVDLFGDAFAASPGEAPAASEGATAPATPAPVAAALDACSGNDPFAPSEGSAEAAPELDLFAMKPPETSAPVVTPTASTAPPVPATAPSPAPTAVAATAATTTAAAAATTTATTSAAAATTAAAPPALDIFGDLFDSAPEVAAASKPDVAPSIDLFGTDAFSSPPRGASPVPESSLTADLLSGSGFHCAEDDRHVPLFFTAVDAFAAPSPASTASPAKAESSGVIDLFGDAFGSSASETQPAPQAVSSSSASADLLAGFGGSFMAPSTTPVTPAQNNLLQPNFEAAFGTTPSTSSSSSFDPSGDLLMPTMAPSGQPAPVSMVPPSPAMSASKGLGSDLDSSLASLVGNLGISGTTSKKGDLQWNAGEKKLTGGANWQPKVTPATWSAGVPPQGTVPPTSSVPPGAGAPSVGQPGAGYGMPPAGTGMTMMPQQPVMFAQPMMRPPFGAAAVPGTQLSPSPTPATQSPKKPPAKDPLADLNIKDFL
# Legend:
# [1] = target: T1, AP180 (rat (endogenous in rat brain synaptosomes)); experiment: co-IP; fractional recovery: immunoprecipitate from rat brain synaptosome lysate on beads split in three aliquots, 15 min on ice in RIPA buffer with 150, 650 or 1150 mM total salt; what stayed on the beads found by Western blot and densitometry; FR = recovery at 1150 mM / recovery at 150 mM, normalised to the FR of the IP-protein
# [2] = target: synaptotagmin 1 (rat (endogenous in rat brain synaptosomes)) (UniProt P21707); experiment: as above
# [3] = target: T1, AP180 (rat (endogenous in rat brain synaptosomes)); experiment: co-IP; rat brain synaptosome lysate in detergent lysis buffer at 150 mM ionic strength; antibody to the IP-protein overnight, protein A or A/G agarose beads, three washes; co-IP-protein found by Western blot
# [4] = target: heavy chain clathrin (rat (endogenous in rat brain synaptosomes)) (UniProt P11442); experiment: as above
# [5] = target: synaptotagmin 1 (rat (endogenous in rat brain synaptosomes)) (UniProt P21707); experiment: co-IP; fractional recovery: immunoprecipitate from rat brain synaptosome lysate on beads split in three aliquots, 15 min on ice in RIPA buffer with 150, 650 or 1150 mM total salt; what stayed on the beads found by Western blot and densitometry; FR = recovery at 1150 mM / recovery at 150 mM, normalised to the FR of the IP-protein; remark: listed apart in the source
molecule,measurement,setting,value
heavy chain clathrin (from UniProt P11442 1-1675),binding,[1],binds
same,binding,[2],binds
B1,binding,[3],binds
same,binding,[4],binds
B2,binding,[5],binds
